The results in this text go back to paper PMC6280245.

The chains behind the UniProt entries cited, without tags or fusion partners.
UniProt Q92769: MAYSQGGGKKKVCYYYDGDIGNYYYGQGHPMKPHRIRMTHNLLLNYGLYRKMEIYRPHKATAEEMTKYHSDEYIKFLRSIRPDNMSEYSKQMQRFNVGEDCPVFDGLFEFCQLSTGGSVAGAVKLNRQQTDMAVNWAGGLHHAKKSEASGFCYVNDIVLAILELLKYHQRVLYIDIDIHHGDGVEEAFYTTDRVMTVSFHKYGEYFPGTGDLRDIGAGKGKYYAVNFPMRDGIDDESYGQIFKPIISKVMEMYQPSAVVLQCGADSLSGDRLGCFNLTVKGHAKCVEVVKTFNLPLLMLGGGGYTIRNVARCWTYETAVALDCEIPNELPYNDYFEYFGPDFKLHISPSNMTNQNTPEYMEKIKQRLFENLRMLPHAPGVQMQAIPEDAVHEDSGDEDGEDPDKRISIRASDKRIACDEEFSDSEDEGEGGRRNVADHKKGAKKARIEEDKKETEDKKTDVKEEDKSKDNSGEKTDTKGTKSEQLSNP
UniProt P26641: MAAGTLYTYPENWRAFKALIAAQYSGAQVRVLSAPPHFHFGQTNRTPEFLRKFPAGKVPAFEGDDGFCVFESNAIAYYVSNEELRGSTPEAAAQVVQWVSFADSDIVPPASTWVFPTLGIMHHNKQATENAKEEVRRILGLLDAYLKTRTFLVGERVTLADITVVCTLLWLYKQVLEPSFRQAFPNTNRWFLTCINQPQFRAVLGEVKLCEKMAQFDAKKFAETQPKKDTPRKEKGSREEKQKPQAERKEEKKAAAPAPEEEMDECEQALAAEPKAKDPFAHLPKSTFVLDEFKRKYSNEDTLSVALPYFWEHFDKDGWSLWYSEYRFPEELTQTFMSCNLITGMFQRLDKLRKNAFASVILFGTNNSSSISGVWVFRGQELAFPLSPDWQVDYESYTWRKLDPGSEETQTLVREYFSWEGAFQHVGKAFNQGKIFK
UniProt P14618: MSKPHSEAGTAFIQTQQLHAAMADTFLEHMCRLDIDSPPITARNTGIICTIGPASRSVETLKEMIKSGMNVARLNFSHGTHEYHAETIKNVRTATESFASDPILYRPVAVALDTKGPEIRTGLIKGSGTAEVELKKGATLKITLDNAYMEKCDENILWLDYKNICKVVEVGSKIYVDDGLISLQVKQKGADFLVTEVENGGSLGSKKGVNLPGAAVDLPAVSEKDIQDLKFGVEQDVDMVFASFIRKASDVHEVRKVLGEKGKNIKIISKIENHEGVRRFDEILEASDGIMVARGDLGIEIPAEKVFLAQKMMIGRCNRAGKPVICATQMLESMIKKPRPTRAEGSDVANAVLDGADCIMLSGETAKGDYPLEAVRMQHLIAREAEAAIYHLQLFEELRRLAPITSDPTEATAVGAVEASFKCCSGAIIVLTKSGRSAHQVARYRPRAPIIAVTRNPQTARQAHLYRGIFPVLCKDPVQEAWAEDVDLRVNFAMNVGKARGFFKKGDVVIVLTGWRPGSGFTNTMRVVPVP
UniProt Q00610: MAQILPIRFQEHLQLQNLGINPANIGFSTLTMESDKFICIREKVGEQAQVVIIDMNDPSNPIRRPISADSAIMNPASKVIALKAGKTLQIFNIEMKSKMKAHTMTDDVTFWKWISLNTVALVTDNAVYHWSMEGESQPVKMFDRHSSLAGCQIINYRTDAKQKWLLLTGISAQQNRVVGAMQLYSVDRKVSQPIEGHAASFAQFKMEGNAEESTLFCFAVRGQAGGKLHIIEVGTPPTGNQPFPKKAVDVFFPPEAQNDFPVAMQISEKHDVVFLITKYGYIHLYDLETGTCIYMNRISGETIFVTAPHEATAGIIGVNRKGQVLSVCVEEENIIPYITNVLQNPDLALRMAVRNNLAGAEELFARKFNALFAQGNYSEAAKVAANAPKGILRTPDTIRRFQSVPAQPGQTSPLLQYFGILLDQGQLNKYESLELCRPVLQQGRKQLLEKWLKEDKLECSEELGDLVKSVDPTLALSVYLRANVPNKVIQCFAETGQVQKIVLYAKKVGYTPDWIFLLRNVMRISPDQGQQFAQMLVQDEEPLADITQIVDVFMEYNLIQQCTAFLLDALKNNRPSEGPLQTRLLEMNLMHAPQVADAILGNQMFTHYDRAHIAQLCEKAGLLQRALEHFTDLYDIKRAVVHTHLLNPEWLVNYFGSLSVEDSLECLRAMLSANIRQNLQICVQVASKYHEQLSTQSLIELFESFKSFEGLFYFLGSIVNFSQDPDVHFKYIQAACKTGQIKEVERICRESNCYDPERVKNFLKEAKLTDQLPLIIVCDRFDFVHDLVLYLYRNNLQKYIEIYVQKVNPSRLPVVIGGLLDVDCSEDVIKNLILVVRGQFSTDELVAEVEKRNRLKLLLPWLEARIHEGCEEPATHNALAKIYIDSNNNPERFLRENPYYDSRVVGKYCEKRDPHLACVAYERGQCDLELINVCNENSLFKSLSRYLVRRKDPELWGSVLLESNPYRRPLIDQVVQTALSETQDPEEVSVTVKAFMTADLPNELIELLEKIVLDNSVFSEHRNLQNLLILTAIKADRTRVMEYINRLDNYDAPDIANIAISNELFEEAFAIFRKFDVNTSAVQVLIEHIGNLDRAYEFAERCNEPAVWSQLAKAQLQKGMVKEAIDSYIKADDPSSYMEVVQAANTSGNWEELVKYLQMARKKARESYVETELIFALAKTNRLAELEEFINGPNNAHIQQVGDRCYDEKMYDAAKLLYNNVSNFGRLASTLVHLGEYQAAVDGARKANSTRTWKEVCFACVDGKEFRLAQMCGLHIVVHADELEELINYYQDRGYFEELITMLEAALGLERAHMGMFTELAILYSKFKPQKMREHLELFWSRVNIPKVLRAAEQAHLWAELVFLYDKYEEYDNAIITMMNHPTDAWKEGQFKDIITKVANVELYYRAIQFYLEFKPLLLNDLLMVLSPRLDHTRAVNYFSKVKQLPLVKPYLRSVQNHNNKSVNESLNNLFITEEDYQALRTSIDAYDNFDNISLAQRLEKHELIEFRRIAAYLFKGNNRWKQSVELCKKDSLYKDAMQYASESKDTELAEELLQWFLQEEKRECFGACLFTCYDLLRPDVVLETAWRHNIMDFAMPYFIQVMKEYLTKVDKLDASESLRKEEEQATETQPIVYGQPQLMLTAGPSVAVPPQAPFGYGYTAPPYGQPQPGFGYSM
UniProt P23528: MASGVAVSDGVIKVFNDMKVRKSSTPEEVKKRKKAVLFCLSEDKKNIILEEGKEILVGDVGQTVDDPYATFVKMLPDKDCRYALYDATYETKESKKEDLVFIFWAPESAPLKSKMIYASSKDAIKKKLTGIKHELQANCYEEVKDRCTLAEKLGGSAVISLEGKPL
UniProt P23526: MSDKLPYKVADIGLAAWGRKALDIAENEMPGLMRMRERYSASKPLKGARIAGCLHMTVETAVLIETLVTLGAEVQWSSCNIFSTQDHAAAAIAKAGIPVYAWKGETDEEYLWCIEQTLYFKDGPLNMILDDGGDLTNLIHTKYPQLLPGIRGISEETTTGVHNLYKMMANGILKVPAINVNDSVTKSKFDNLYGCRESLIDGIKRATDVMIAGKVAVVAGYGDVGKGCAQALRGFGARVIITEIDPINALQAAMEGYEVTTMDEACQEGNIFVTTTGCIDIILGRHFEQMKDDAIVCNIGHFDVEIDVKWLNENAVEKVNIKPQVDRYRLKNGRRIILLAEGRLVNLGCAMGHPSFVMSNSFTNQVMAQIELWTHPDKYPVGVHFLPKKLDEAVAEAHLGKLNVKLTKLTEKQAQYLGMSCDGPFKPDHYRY
UniProt P21333: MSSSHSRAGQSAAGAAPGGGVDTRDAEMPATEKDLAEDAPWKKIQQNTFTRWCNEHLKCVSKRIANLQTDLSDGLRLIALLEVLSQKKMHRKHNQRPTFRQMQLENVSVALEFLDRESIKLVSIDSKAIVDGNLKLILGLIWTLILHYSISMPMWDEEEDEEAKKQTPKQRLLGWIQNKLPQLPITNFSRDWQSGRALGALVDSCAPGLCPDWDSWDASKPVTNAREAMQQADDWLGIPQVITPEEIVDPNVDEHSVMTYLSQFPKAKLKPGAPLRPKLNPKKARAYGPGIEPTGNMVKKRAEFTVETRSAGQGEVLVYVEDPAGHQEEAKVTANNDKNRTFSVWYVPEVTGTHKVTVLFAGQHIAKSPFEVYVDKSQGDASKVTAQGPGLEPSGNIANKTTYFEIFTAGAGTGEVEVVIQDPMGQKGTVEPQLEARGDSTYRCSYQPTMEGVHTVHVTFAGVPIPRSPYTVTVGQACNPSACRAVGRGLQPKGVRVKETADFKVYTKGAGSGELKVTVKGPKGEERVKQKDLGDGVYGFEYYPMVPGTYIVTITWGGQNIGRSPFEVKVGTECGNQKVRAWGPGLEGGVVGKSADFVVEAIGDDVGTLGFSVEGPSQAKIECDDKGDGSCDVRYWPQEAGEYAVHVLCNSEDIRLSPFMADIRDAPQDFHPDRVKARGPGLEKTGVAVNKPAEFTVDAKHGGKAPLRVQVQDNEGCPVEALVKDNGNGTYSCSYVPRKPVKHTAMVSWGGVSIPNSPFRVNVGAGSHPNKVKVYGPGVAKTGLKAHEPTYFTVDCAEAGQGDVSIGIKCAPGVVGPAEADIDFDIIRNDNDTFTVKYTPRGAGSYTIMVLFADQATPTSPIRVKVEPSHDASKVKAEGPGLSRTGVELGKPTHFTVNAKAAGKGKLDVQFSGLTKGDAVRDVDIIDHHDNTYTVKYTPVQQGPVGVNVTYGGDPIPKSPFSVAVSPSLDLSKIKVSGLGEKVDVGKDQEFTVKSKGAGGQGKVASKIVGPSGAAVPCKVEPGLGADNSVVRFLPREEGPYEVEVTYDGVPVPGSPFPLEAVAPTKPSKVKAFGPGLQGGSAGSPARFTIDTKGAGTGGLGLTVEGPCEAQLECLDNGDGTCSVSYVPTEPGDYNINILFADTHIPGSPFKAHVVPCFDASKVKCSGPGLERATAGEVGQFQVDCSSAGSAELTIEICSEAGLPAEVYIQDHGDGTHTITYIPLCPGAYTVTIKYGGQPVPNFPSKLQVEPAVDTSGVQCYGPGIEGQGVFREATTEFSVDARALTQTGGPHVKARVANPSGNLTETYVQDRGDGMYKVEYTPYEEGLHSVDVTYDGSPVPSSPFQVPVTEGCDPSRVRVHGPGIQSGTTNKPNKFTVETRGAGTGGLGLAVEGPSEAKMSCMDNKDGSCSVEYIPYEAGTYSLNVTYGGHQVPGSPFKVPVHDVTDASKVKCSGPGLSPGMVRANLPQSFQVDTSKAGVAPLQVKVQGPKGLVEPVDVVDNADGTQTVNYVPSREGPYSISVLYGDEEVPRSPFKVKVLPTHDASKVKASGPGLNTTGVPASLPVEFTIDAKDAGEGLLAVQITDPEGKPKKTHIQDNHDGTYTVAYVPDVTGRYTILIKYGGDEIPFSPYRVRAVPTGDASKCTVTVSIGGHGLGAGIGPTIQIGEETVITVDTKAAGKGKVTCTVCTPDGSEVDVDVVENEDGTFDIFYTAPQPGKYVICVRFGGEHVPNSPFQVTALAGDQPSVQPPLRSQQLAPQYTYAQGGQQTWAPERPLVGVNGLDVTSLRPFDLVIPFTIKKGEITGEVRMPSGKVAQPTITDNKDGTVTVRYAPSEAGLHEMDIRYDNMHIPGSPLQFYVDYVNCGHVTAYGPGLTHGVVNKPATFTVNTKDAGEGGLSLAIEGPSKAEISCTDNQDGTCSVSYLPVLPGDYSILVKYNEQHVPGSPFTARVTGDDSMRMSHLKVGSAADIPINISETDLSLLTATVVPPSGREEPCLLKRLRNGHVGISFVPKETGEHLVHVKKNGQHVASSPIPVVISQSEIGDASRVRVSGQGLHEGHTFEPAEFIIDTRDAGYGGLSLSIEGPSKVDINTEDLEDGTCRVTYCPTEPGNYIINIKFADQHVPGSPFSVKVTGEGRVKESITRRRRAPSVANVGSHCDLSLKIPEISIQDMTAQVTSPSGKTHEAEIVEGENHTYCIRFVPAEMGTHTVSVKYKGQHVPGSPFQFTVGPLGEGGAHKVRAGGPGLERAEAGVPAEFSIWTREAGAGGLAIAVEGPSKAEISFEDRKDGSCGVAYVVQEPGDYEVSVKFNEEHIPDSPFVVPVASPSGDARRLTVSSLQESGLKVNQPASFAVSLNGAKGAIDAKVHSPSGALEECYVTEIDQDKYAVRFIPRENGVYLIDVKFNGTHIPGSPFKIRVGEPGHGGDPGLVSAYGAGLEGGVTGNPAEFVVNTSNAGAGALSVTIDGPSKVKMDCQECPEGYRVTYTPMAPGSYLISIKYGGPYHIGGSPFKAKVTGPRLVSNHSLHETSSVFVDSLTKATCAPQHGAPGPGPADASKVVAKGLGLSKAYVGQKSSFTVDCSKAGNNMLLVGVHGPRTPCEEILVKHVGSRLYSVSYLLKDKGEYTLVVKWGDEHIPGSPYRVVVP
UniProt P61088: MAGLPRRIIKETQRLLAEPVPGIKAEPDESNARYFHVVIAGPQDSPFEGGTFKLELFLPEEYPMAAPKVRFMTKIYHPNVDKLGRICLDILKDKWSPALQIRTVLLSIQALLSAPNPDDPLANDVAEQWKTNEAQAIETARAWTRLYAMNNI

Sequences and labels used below:
B1: Peroxiredoxin-1 (protein, UniProt Q06830 1-199)
chain: MSSGNAKIGHPAPNFKATAVMPDGQFKDISLSDYKGKYVVFFFYPLDFTFVCPTEIIAFSDRAEEFKKLNCQVIGASVDSHFCHLAWVNTPKKQGGLGPMNIPLVSDPKRTIAQDYGVLKADEGISFRGLFIIDDKGILRQITVNDLPVGRSVDETLRLVQAFQFTDKHGEVCPAGWKPGSDTIKPDVQKSKEYFSKQK
B2: Alpha-aminoadipic semialdehyde dehydrogenase (protein, UniProt P49419 27-539)
chain: AFMSTLLINQPQYAWLKELGLREENEGVYNGSWGGRGEVITTYCPANNEPIARVRQASVADYEETVKKAREAWKIWADIPAPKRGEIVRQIGDALREKIQVLGSLVSLEMGKILVEGVGEVQEYVDICDYAVGLSRMIGGPILPSERSGHALIEQWNPVGLVGIITAFNFPVAVYGWNNAIAMICGNVCLWKGAPTTSLISVAVTKIIAKVLEDNKLPGAICSLTCGGADIGTAMAKDERVNLLSFTGSTQVGKQVGLMVQERFGRSLLELGGNNAIIAFEDADLSLVVPSALFAAVGTAGQRCTTARRLFIHESIHDEVVNRLKKAYAQIRVGNPWDPNVLYGPLHTKQAVSMFLGAVEEAKKEGGTVVYGGKVMDRPGNYVEPTIVTGLGHDASIAHTETFAPILYVFKFKNEEEVFAWNNEVKQGLSSSIFTKDLGRIFRWLGPKGSDCGIVNVNIPTSGAEIGGAFGGEKHTGGGRESGSDAWKQYMRRSTCTINYSKDLPLAQGIKFQ
B3: Aspartate aminotransferase, mitochondrial (protein, UniProt P00505 30-430)
chain: SSWWTHVEMGPPDPILGVTEAFKRDTNSKKMNLGVGAYRDDNGKPYVLPSVRKAEAQIAAKNLDKEYLPIGGLAEFCKASAELALGENSEVLKSGRFVTVQTISGTGALRIGASFLQRFFKFSRDVFLPKPTWGNHTPIFRDAGMQLQGYRYYDPKTCGFDFTGAVEDISKIPEQSVLLLHACAHNPTGVDPRPEQWKEIATVVKKRNLFAFFDMAYQGFASGDGDKDAWAVRHFIEQGINVCLCQSYAKNMGLYGERVGAFTMVCKDADEAKRVESQLKILIRPMYSNPPLNGARIAAAILNTPDLRKQWLQEVKVMADRIIGMRTQLVSNLKKEGSTHNWQHITDQIGMFCFTGLKPEQVERLIKEFSIYMTKDGRISVAGVTSSNVGYLAHAIHQVTK
B4: Isoleucine-tRNA ligase, mitochondrial (protein, UniProt Q9NSE4 49-1012)
chain: SNHQPNSNSGRYRDTVLLPQTSFPMKLLGRQQPDTELEIQQKCGFSELYSWQRERKVKTEFCLHDGPPYANGDPHVGHALNKILKDIANRFHMMNGSKIHFVPGWDCHGLPIEIKVLSELGREAQNLSAMEIRKKARSFAKAAIEKQKSAFIRWGIMADWNNCYYTFDGKYEAKQLRTFYQMYDKGLVYRSYKPVFWSPSSRTALAEAELEYNPEHVSRSIYVKFPLLKPSPKLASLIDGSSPVSILVWTTQPWTIPANEAVCYMPESKYAVVKCSKSGDLYVLAADKVASVASTLETTFETISTLSGVDLENGTCSHPLIPDKASPLLPANHVTMAKGTGLVHTAPAHGMEDYGVASQHNLPMDCLVDEDGVFTDVAGPELQNKAVLEEGTDVVIKMLQTAKNLLKEEKLVHSYPYDWRTKKPVVIRASKQWFINITDIKTAAKELLKKVKFIPGSALNGMVEMMDRRPYWCISRQRVWGVPIPVFHHKTKDEYLINSQTTEHIVKLVEQHGSDIWWTLPPEQLLPKEVLSEVGGPDALEYVPGQDILDIWFDSGTSWSYVLPGPDQRADLYLEGKDQLGGWFQSSLLTSVAARKRAPYKTVIVHGFTLGEKGEKMSKSLGNVIHPDVVVNGGQDQSKEPPYGADVLRWWVADSNVFTEVAIGPSVLNAARDDISKLRNTLRFLLGNVADFNPETDSIPVNDMYVIDQYMLHLLQDLANKITELYKQYDFGKVVRLLRTFYTRELSNFYFSIIKDRLYCEKENDPKRRSCQTALVEILDVIVRSFAPILPHLAEEVFQHIPYIKEPKSVFRTGWISTSSIWKKPGLEEAVESACAMRDSFLGSIPGKNAAEYKVITVIEPGLLFEIIEMLQSEETSSTSQLNELMMASESTLLAQEPREMTADVIELKGKFLINLEGGDIREESSYKVIVMPTTKEKCPRCWKYTAESSDTLCPRCAEVVSGK
B5: 3-Hydroxyacyl-CoA dehydrogenase type-2 (protein, UniProt Q99714 1-261)
chain: MAAACRSVKGLVAVITGGASGLGLATAERLVGQGASAVLLDLPNSGGEAQAKKLGNNCVFAPADVTSEKDVQTALALAKGKFGRVDVAVNCAGIAVASKTYNLKKGQTHTLEDFQRVLDVNLMGTFNVIRLVAGEMGQNEPDQGGQRGVIINTASVAAFEGQVGQAAYSASKGGIVGMTLPIARDLAPIGIRVMTIAPGLFGTPLLTSLPEKVCNFLASQVPFPSRLGDPAEYAHLVQAIIENPFLNGEVIRLDGAIRMQP
B6: Serine/threonine-protein phosphatase 5 (protein, UniProt P53041 1-499)
chain: MAMAEGERTECAEPPRDEPPADGALKRAEELKTQANDYFKAKDYENAIKFYSQAIELNPSNAIYYGNRSLAYLRTECYGYALGDATRAIELDKKYIKGYYRRAASNMALGKFRAALRDYETVVKVKPHDKDAKMKYQECNKIVKQKAFERAIAGDEHKRSVVDSLDIESMTIEDEYSGPKLEDGKVTISFMKELMQWYKDQKKLHRKCAYQILVQVKEVLSKLSTLVETTLKETEKITVCGDTHGQFYDLLNIFELNGLPSETNPYIFNGDFVDRGSFSVEVILTLFGFKLLYPDHFHLLRGNHETDNMNQIYGFEGEVKAKYTAQMYELFSEVFEWLPLAQCINGKVLIMHGGLFSEDGVTLDDIRKIERNRQPPDSGPMCDLLWSDPQPQNGRSISKRGVSCQFGPDVTKAFLEENNLDYIIRSHEVKAEGYEVAHGGRCVTVFSAPNYCDQMGNKASYIHLQGSDLRPQFHQFTAVPHPNVKPMAYANTLLQLGMM
B7: Xaa-Pro dipeptidase (protein, UniProt P12955 1-493)
chain: MAAATGPSFWLGNETLKVPLALFALNRQRLCERLRKNPAVQAGSIVVLQGGEETQRYCTDTGVLFRQESFFHWAFGVTEPGCYGVIDVDTGKSTLFVPRLPASHATWMGKIHSKEHFKEKYAVDDVQYVDEIASVLTSQKPSVLLTLRGVNTDSGSVCREASFDGISKFEVNNTILHPEIVECRVFKTDMELEVLRYTNKISSEAHREVMKAVKVGMKEYELESLFEHYCYSRGGMRHSSYTCICGSGENSAVLHYGHAGAPNDRTIQNGDMCLFDMGGEYYCFASDITCSFPANGKFTADQKAVYEAVLRSSRAVMGAMKPGVWWPDMHRLADRIHLEELAHMGILSGSVDAMVQAHLGAVFMPHGLGHFLGIDVHDVGGYPEGVERIDEPGLRSLRTARHLQPGMVLTVEPGIYFIDHLLDEALADPARASFLNREVLQRFRGFGGVRIEEDVVVTDSGIELLTCVPRTVEEIEACMAGCDKAFTPFSGPK

No constants are given. Whether binding was seen depends on the method and setting. Binding seen in cells or lysates may run through a third protein. These calls come from enrichment with a bait or labelling near it, and not all partners need be listed.

The target in this assay is T1, mouse Nucleoredoxin Cys208Ser (mouse) (UniProt P97346).
T1 sequence: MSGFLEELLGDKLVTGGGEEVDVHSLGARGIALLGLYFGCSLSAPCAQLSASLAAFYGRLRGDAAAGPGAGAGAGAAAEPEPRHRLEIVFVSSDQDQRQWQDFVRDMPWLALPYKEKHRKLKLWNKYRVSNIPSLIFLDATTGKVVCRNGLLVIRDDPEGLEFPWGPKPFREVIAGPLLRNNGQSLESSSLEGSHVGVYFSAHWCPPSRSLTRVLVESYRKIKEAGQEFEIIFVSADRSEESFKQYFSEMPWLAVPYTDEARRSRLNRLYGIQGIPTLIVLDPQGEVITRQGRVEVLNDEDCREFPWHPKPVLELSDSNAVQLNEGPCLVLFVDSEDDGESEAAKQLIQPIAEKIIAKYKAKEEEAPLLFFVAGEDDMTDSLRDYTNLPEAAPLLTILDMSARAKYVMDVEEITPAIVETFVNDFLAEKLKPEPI
Put plainly: affinity purification with mass spectrometry; intermediate trapping: mNrx Cys208Ser coupled to CNBr-activated sepharose and reduced with 10 mM DTT; clarified SH-SY5Y lysate (NP40 lysis buffer) 2 h at 4°C; washed with 100 mM Tris, 300 mM NaCl, pH 8 and TE buffer; trapped proteins (mixed disulfide) eluted with 10 mM DTT and 10 mM TCEP; only the target purified.
In the case of “Histone deacetylase 2 (from UniProt Q92769 1-488)”, the binding entry is given as “binds”. The same measure for “Cytosol aminopeptidase (from UniProt P28838 1-519)”: “binds”; for “Elongation factor 1-gamma (from UniProt P26641 1-437)”: “binds”. With “Pyruvate kinase (from UniProt P14618 1-531)”, the binding entry is recorded as “binds”. For “Clathrin heavy chain 1 (from UniProt Q00610 1-1675)” the value was “binds”; for “Heat shock protein HSP 90-alpha (from UniProt P07900 1-732)”, “binds”.

With “T-Complex protein 1 subunit theta (from UniProt P50990 1-548)”, the binding entry was “binds”. The same measure for “N(G),N(G)-Dimethylarginine dimethylaminohydrolase 1 (from UniProt O94760 1-285)”: “binds”; for “Kinesin light chain 1 (from UniProt Q07866 1-573)”: “binds”; for “Guanine nucleotide-binding protein (from UniProt P62873 1-340)”: “binds”. With “Tubulin beta-2B chain (from UniProt Q9BVA1 1-445)”, the binding result is recorded as “binds”. For Cofilin-1 (from UniProt P23528 1-166) the value was “binds”; for “Gamma-enolase (from UniProt P09104 1-434)”, “binds”. The same measure for “Ubiquitin carboxyl-terminal hydrolase 5 (from UniProt P45974 1-858)”: “binds”.

Take “Adenosylhomocysteinase (from UniProt P23526 1-432)”: the binding result was “binds”. “14-3-3 protein zeta/delta (protein kinase C inhibitor protein 1) (from UniProt P63104 1-245)”: the binding entry was “binds”. The same measure for Filamin-A (from UniProt P21333 1-2647): “binds”; for “Aspartate aminotransferase, cytoplasmic (from UniProt P17174 1-413)”: “binds”.

Consider “Ubiquitin-conjugating enzyme E2 N (from UniProt P61088 1-152)”, for which the binding result is on record as “binds”.

For the molecule “Glyceraldehyde-3-phosphate dehydrogenase (from UniProt P04406 1-335)”, the binding entry was “binds”. The same measure for “Inosine-5′-monophosphate dehydrogenase 2 (from UniProt P12268 1-514)”: “binds”; for B1: “binds”; for B2: “binds”. The same measure for B3: “binds”; for B4: “binds”.

Consider B5, for which the binding result was “binds”.

Take B6: the binding entry is reported as “binds”. The same measure for B7: “binds”.
